Compound in this assay: Nc1nc2c(ncn2[C@@H]2O[C@H](COP(=O)(O)OP(=O)(O)OP(=O)(O)O)[C@@H](O)[C@H]2O)c(=O)[nH]1 [guanosine triphosphate]
As to the kind of experiment: NP40-soluble protein abundance relative to vehicle (solubility fold change) (ratio); higher = more soluble protein in presence of GTP. Here is the method:
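Solubility proteome profiling in Jurkat crude lysate. Lysate was treated with Mg-GTP (0.1-10 mM) for 10 min at room temperature and 3 min at 37 °C, then solubilised with 0.8% NP40 and benzonase, followed by ultracentrifugation. Proteins were quantified by TMT10 LC-MS/MS; the value is the NP40-soluble abundance relative to the NP40-processed vehicle, from 3 independent experiments.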

Chains of the proteins cited; added tags and fusions are not shown. Lines headed by an entry give the natural chain unless they say otherwise; changes in a name come on top.
UniProt Q96J02: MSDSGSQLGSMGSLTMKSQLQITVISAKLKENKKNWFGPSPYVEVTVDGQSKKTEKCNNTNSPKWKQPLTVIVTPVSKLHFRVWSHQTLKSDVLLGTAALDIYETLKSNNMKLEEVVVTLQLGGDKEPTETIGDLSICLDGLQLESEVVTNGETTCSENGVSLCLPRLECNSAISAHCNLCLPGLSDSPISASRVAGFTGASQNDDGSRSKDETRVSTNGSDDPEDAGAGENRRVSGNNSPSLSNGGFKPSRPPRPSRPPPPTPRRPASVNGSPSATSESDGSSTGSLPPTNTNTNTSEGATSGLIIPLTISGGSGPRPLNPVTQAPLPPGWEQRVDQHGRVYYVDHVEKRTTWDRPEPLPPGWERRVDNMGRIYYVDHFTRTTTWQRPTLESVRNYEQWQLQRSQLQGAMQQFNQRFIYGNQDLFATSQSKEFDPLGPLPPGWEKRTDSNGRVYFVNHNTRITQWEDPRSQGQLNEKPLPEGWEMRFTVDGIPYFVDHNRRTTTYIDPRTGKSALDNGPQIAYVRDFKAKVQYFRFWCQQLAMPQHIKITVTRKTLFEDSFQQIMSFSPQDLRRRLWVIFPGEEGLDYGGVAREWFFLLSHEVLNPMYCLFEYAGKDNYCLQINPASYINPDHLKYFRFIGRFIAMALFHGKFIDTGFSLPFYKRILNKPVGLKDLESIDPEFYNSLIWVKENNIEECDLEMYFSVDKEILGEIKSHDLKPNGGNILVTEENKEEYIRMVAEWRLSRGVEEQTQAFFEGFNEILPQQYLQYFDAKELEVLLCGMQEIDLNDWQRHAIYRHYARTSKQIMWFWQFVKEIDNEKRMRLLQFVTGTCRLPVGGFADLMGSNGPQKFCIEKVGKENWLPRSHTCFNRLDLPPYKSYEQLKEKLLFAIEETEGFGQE
UniProt Q92643: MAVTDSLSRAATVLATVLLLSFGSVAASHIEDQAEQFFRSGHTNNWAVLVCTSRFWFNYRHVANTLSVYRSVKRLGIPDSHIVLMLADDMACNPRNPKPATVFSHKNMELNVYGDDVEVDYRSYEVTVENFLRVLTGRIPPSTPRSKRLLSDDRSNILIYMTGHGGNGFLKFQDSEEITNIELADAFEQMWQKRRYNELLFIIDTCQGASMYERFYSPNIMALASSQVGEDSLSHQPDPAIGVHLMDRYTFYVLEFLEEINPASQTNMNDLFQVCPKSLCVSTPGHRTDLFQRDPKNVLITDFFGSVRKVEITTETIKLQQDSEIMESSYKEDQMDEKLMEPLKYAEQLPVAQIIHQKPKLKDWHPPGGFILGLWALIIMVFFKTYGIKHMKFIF
UniProt Q92769, whole entry: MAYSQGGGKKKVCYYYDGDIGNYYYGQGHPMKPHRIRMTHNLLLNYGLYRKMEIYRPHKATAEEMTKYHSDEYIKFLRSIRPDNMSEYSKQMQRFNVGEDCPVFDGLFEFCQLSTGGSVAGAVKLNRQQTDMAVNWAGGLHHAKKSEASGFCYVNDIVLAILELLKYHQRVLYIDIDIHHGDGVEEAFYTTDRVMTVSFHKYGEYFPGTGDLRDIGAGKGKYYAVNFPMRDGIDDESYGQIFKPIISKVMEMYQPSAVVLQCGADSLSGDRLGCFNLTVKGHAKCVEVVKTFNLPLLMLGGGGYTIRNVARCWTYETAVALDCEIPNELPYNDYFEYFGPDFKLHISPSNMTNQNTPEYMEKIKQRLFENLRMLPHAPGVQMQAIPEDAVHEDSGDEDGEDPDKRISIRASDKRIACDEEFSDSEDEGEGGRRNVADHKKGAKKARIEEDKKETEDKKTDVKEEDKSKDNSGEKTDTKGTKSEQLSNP
UniProt Q96EA4: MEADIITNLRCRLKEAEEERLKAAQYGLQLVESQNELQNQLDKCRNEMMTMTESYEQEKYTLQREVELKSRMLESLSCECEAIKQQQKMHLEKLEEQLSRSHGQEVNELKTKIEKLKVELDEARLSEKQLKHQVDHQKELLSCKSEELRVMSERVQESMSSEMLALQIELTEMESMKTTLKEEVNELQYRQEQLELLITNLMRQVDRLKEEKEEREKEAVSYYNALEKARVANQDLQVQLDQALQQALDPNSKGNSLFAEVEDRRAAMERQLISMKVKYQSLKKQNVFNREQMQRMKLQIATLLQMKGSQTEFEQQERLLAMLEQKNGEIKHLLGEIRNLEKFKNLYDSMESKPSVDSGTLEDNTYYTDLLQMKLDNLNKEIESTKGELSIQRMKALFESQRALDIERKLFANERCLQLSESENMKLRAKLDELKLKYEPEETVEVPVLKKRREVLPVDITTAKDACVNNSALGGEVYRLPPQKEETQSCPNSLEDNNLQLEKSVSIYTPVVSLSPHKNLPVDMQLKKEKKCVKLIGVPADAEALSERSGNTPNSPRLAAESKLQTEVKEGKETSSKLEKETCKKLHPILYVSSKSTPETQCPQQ

± gives the standard deviation of the averaged measurements. This is one part of the list.

As to UniProt Q96J02 and related entries, the NP40-soluble protein abundance turned out to be 1.08 ± 0.078 (concentration: 0.1mM); 1.09 ± 0.042 (concentration: 0.5mM); 1.08 ± 0.062 (concentration: 1mM); 1.1 ± 0.078 (concentration: 2mM); 1.04 ± 0.077 (concentration: 4mM); 1.07 ± 0.051 (concentration: 6mM). The NP40-soluble protein abundance runs as follows: (concentration: 8mM) 1.06 ± 0.052; (concentration: 10mM) 1.04 ± 0.056.

Turning to PIGK (UniProt Q92643), the NP40-soluble protein abundance (concentration: 0.1mM) came to 1.04 ± 0.048; the NP40-soluble protein abundance (concentration: 0.5mM) worked out at 1.09 ± 0.086; the NP40-soluble protein abundance (concentration: 1mM) came out at 0.977 ± 0.047; the NP40-soluble protein abundance (concentration: 2mM) amounted to 0.997 ± 0.066; the NP40-soluble protein abundance (concentration: 4mM) amounted to 1 ± 0.054; the NP40-soluble protein abundance (concentration: 6mM) was 0.983 ± 0.1. For the same target, the NP40-soluble protein abundance by setting is: (concentration: 8mM) 0.934 ± 0.075; (concentration: 10mM) 0.876 ± 0.015.

HDAC2 (UniProt Q92769): the NP40-soluble protein abundance reads like this: (concentration: 0.1mM) 0.967 ± 0.017; (concentration: 0.5mM) 1.02 ± 0.012; (concentration: 1mM) 0.999 ± 0.054; (concentration: 2mM) 0.994 ± 0.039; (concentration: 4mM) 1.02 ± 0.025; (concentration: 6mM) 1.05 ± 0.083. Besides, the NP40-soluble protein abundance runs as follows: (concentration: 8mM) 1.07 ± 0.068; (concentration: 10mM) 1.04 ± 0.043.

With UniProt Q8WXH0 and related entries, the NP40-soluble protein abundance runs as follows: (concentration: 0.1mM) 0.9889 ± 0.0062; (concentration: 0.5mM) 1.03 ± 0.022; (concentration: 1mM) 1.025 ± 0.0021; (concentration: 2mM) 1.007 ± 0.0037; (concentration: 4mM) 0.9917 ± 0.0062; (concentration: 6mM) 1.01 ± 0.015. Besides, the NP40-soluble protein abundance (concentration: 8mM) worked out at 1.03 ± 0.023 and the NP40-soluble protein abundance (concentration: 10mM) came to 1.03 ± 0.031.

Turning to UniProt Q96EA4 and related entries, the NP40-soluble protein abundance amounted to 0.956 ± 0.024 (concentration: 0.1mM); 0.972 ± 0.069 (concentration: 0.5mM); 0.944 ± 0.067 (concentration: 1mM); 1.03 ± 0.027 (concentration: 2mM); 0.982 ± 0.016 (concentration: 4mM); 0.98 ± 0.1 (concentration: 6mM). Also, the NP40-soluble protein abundance by setting is: (concentration: 8mM) 0.986 ± 0.065; (concentration: 10mM) 0.995 ± 0.024.

For the origin of these results see the supplement of paper PMC6411743.
